B1: Hrp1 (protein, UniProt Q99383 1-534)
chain: MSSDEEDFNDIYGDDKPTTTEEVKKEEEQNKAGSGTSQLDQLAALQALSSSLNKLNNPNSNNSSSNNSNQDTSSSKQDGTANDKEGSNEDTKNEKKQESATSANANANASSAGPSGLPWEQLQQTMSQFQQPSSQSPPQQQVTQTKEERSKADLSKESCKMFIGGLNWDTTEDNLREYFGKYGTVTDLKIMKDPATGRSRGFGFLSFEKPSSVDEVVKTQHILDGKVIDPKRAIPRDEQDKTGKIFVGGIGPDVRPKEFEEFFSQWGTIIDAQLMLDKDTGQSRGFGFVTYDSADAVDRVCQNKFIDFKDRKIEIKRAEPRHMQQKSSNNGGNNGGNNMNRRGGNFGNQGDFNQMYQNPMMGGYNPMMNPQAMTDYYQKMQEYYQQMQKQTGMDYTQMYQQQMQQMAMMMPGFAMPPNAMTLNQPQQDSNATQGSPAPSDSDNNKSNDVQTIGNTSNTDSGSPPLNLPNGPKGPSQYNDDHNSGYGYNRDRGDRDRNDRDRDYNHRSGGNHRRNGRGGRGGYNRRNNGYHPYNR
B2: Spt6 (protein, UniProt P23615 1-1451)
chain: MEETGDSKLVPRDEEEIVNDNDETKAPSEEEEGEDVFDSSEEDEDIDEDEDEARKVQEGFIVNDDDENEDPGTSISKKRRKHKRREREEDDRLSEDDLDLLMENAGVERTKASSSSGKFKRLKRVGDEGNAAESESDNVAASRQDSTSKLEDFFSEDEEEEESGLRNGRNNEYGRDEEDHENRNRTADKGGILDELDDFIEDDEFSDEDDETRQRRIQEKKLLREQSIKQPTQITGLSSDKIDEMYDIFGDGHDYDWALEIENEELENGNDNNEAEEEEIDEETGAIKSTKKKISLQDIYDLEDLKKNLMTEGDMKIRKTDIPERYQELRAGITDYGNMSSEDQELERNWIAEKISVDKNFDANYDLTEFKEAIGNAIKFITKENLEVPFIYAYRRNYISSREKDGFLLTEDDLWDIVSLDIEFHSLVNKKDYVQRFYAELHIDDPIVTEYFKNQNTASIAELNSLQDIYDYLEFKYANEINEMFINHTGKTGKKHLKNSSYEKFKASPLYQAVSDIGISAEDVGENISSQHQIHPPVDHPSSKPVEVIESILNANSGDLQVFTSNTKLAIDTVQKYYSLELSKNTKIREKVRSDFSKYYLADVVLTAKGKKEIQKGSLYEDIKYAINRTPMHFRRDPDVFLKMVEAESLNLLSVKLHMSSQAQYIEHLFQIALETTNTSDIAIEWNNFRKLAFNQAMDKIFQDISQEVKDNLTKNCQKLVAKTVRHKFMTKLDQAPFIPNVRDPKIPKILSLTCGQGRFGADAIIAVYVNRKGDFIRDYKIVDNPFDKTNPEKFEDTLDNIIQSCQPNAIGINGPNPKTQKFYKRLQEVLHKKQIVDSRGHTIPIIYVEDEVAIRYQNSERAAQEFPNKPPLVKYCIALARYMHSPLLEYANLTSEEVRSLSIHPHQNLLSSEQLSWALETAFVDIVNLVSVEVNKATDNNYYASALKYISGFGKRKAIDFLQSLQRLNEPLLARQQLITHNILHKTIFMNSAGFLYISWNEKRQKYEDLEHDQLDSTRIHPEDYHLATKVAADALEYDPDTIAEKEEQGTMSEFIELLREDPDRRAKLESLNLESYAEELEKNTGLRKLNNLNTIVLELLDGFEELRNDFHPLQGDEIFQSLTGESEKTFFKGSIIPVRVERFWHNDIICTTNSEVECVVNAQRHAGAQLRRPANEIYEIGKTYPAKVIYIDYANITAEVSLLDHDVKQQYVPISYSKDPSIWDLKQELEDAEEERKLMMAEARAKRTHRVINHPYYFPFNGRQAEDYLRSKERGEFVIRQSSRGDDHLVITWKLDKDLFQHIDIQELEKENPLALGKVLIVDNQKYNDLDQIIVEYLQNKVRLLNEMTSSEKFKSGTKKDVVKFIEDYSRVNPNKSVYYFSLNHDNPGWFYLMFKINANSKLYTWNVKLTNTGYFLVNYNYPSVIQLCNGFKTLLKSNSSKNRMNNYR
B3: Hpm1 (protein, UniProt P40481 1-377)
chain: MSFSFGFTSNDFDDDELVAQPETFVESSKENENTTAYINPLDSDFLSQAGVVQPNVEDLGTILESLKDVRLTFEEFQSPIYRKPLIKRELFDVKHQLMLETDAQSNNNSTELDILLGDTSEDLRKNIYEGGLKSWECSYDLVDLLSENVDRISNDIDAVVEIGCGTALPSEFLFRSALLRNDRSKGLKFVLTDYNASVLRLVTIPNLVITWAKTVLTKEQWYALQKDECEDIPINNEELLLTSKLLAAFYDDVQSRNISVTLISGSWGRKFSNLIHEVLSGSQKVLSLSSETIYQPDNLPVIAETILDIHNLPQTDVKTYVAAKDIYFGVGGSITEFEAYLDDKINSEHLPIHSERFKVNSGLKRSIICIETNKAIR
B4: Erg27 (protein, UniProt Q12452 1-347)
chain: MNRKVAIVTGTNSNLGLNIVFRLIETEDTNVRLTIVVTSRTLPRVQEVINQIKDFYNKSGRVEDLEIDFDYLLVDFTNMVSVLNAYYDINKKYRAINYLFVNAAQGIFDGIDWIGAVKEVFTNPLEAVTNPTYKIQLVGVKSKDDMGLIFQANVFGPYYFISKILPQLTRGKAYIVWISSIMSDPKYLSLNDIELLKTNASYEGSKRLVDLLHLATYKDLKKLGINQYVVQPGIFTSHSFSEYLNFFTYFGMLCLFYLARLLGSPWHNIDGYKAANAPVYVTRLANPNFEKQDVKYGSATSRDGMPYIKTQEIDPTGMSDVFAYIQKKKLEWDEKLKDQIVETRTPI
B5: Nug1 (protein, UniProt P40010 1-520)
chain: MRVRKRQSRRTSTKLKEGIKKKASAHRKKEKKMAKKDVTWRSRSKKDPGIPSNFPYKAKILEEIEAKKMKDLEERELAKQQRLEARKAAKEQGVDAMDEDMIEDDENGLAALVESAQQAAAEYEGTPSNDADVRDDELDVIDYNIDFYGEDVEGESELEKSRKAYDKIFKSVIDASDVILYVLDARDPESTRSRKVEEAVLQSQGKRLILILNKVDLIPPHVLEQWLNYLKSSFPTIPLRASSGAVNGTSFNRKLSQTTTASALLESLKTYSNNSNLKRSIVVGVIGYPNVGKSSVINALLARRGGQSKACPVGNEAGVTTSLREIKIDNKLKILDSPGICFPSENKKRSKVEHEAELALLNALPAKHIVDPYPAVLMLVKRLAKSDEMTESFKKLYEIPPIPANDADTFTKHFLIHVARKRGRLGKGGIPNLASAGLSVLNDWRDGKILGWVLPNTSAAASQQDKQNLSTINTGTKQAPIAANESTIVSEWSKEFDLDGLFSSLDKAIDASKDQDTMME
B6: Sub2 (protein, UniProt Q07478 1-446)
chain: MSHEGEEDLLEYSDNEQEIQIDASKAAEAGETGAATSATEGDNNNNTAAGDKKGSYVGIHSTGFKDFLLKPELSRAIIDCGFEHPSEVQQHTIPQSIHGTDVLCQAKSGLGKTAVFVLSTLQQLDPVPGEVAVVVICNARELAYQIRNEYLRFSKYMPDVKTAVFYGGTPISKDAELLKNKDTAPHIVVATPGRLKALVREKYIDLSHVKNFVIDECDKVLEELDMRRDVQEIFRATPRDKQVMMFSATLSQEIRPICRRFLQNPLEIFVDDEAKLTLHGLQQYYIKLEEREKNRKLAQLLDDLEFNQVIIFVKSTTRANELTKLLNASNFPAITVHGHMKQEERIARYKAFKDFEKRICVSTDVFGRGIDIERINLAINYDLTNEADQYLHRVGRAGRFGTKGLAISFVSSKEDEEVLAKIQERFDVKIAEFPEEGIDPSTYLNN
B7: Nog1 (protein, UniProt Q02892 1-647)
chain: MQLSWKDIPTVAPANDLLDIVLNRTQRKTPTVIRPGFKITRIRAFYMRKVKYTGEGFVEKFEDILKGFPNINDVHPFHRDLMDTLYEKNHYKISLAAISRAKSLVEQVARDYVRLLKFGQSLFQCKQLKRAALGRMATIVKKLRDPLAYLEQVRQHIGRLPSIDPNTRTLLICGYPNVGKSSFLRCITKSDVDVQPYAFTTKSLYVGHFDYKYLRFQAIDTPGILDRPTEEMNNIEMQSIYAIAHLRSCVLYFMDLSEQCGFTIEAQVKLFHSIKPLFANKSVMVVINKTDIIRPEDLDEERAQLLESVKEVPGVEIMTSSCQLEENVMEVRNKACEKLLASRIENKLKSQSRINNVLNKIHVAQPQARDDVKRTPFIPESVKNLKKYDPEDPNRRKLARDIEAENGGAGVFNVNLKDKYLLEDDEWKNDIMPEILDGKNVYDFLDPEIAAKLQALEEEEEKLENEGFYNSDDEEEIYDGFEASEVDDIKEKAAWIRNRQKTMIAEARNRKSLKNKAIMPRSKLTKSFGKMEEHMSTLGHDMSALQDKQNRAARKNRYVERGSDVVFGDQDALTASTENGVKLRQTDRLLDGVADGSMRSKADRMAKMERRERNRHAKQGESDRHNAVSLSKHLFSGKRGVGKTDFR
B8: Nop6 (protein, UniProt Q07623 1-225)
chain: MGSEEDKKLTKKQLKAQQFRKSKEEKDQEKDVKKEQAPEGKRPNSAAGNDGEEPVKKKRKTRRGRGGKGKNGKKGNRFIVFVGSLPRDITAVELQNHFKNSSPDQIRLRADKGIAFLEFDADKDRTGIQRRMDIALLQHGTLLKEKKINVELTVGGGGNSQERLEKLKNKNIKLDEERKERLTKMINDGNQKKIAKTTATAAQTSGTDNKPVPAGIHPDRAKLLK
B9: Gbp2 (protein, UniProt P25555 1-427)
chain: MERELGMYGNDRSRSRSPVRRRLSDDRDRYDDYNDSSSNNGNGSRRQRRDRGSRFNDRYDQSYGGSRYHDDRNWPPRRGGRGRGGSRSFRGGRGGGRGRTLGPIVERDLERQFDATKRNFENSIFVRNLTFDCTPEDLKELFGTVGEVVEADIITSKGHHRGMGTVEFTKNESVQDAISKFDGALFMDRKLMVRQDNPPPEAAKEFSKKATREEIDNGFEVFIINLPYSMNWQSLKDMFKECGHVLRADVELDFNGFSRGFGSVIYPTEDEMIRAIDTFNGMEVEGRVLEVREGRFNKRKNNDRYNQRREDLEDTRGTEPGLAQDAAVHIDETAAKFTEGVNPGGDRNCFIYCSNLPFSTARSDLFDLFGPIGKINNAELKPQENGQPTGVAVVEYENLVDADFCIQKLNNYNYGGCSLQISYARRD
B10: Erb1 (protein, UniProt Q04660 1-807)
chain: MMAKNNKTTEAKMSKKRAASEESDVEEDEDKLLSVDGLIDAEASESDEDDDEYESAVEEKESSSDKEAQDDSDDDSDAELNKLLAEEEGDGEEDYDSSEFSDDTTSLTDRLSGVKLQTIVDPNIYSKYADGSDRIIKPEINPVYDSDDSDAETQNTIGNIPLSAYDEMPHIGYDINGKRIMRPAKGSALDQLLDSIELPEGWTGLLDKNSGSSLNLTKEELELISKIQRNEQTDDSINPYEPLIDWFTRHEEVMPLTAVPEPKRRFVPSKNEAKRVMKIVRAIREGRIIPPKKLKEMKEKEKIENYQYDLWGDSTETNDHVMHLRAPKLPPPTNEESYNPPEEYLLSPEEKEAWENTEYSERERNFIPQKYSALRKVPGYGESIRERFERSLDLYLAPRVRKNKLNIDPNSLIPELPSPKDLRPFPIRCSTIYAGHKGKVRTLSIDPSGLWLATGSDDGTVRVWEILTGREVYRTTLIDDEENPDYHIECIEWNPDANNGILAVAVGENIHLIVPPIFGYDIENNGKTKIEDGFGYDTFGTVKKSNLEVNENGDGDEDGENESAKNAVKKQVAQWNKPSQKQLEKDICITISCKKTVKKLSWHRKGDYFVTVQPDSGNTSVLIHQVSKHLTQSPFKKSKGIIMDAKFHPFKPQLFVCSQRYVRIYDLSQQILVKKLLPGARWLSKIDIHPRGDNLIASSFDKRVLWHDLDLASTPYKTLRYHEKAVRSVNFHKKLPLFSSAADDGTIHVFHATVYDDMMKNPMIVPLKKLTGHKVINSLGVLDAIWHPREAWLFSAGADNTARLWTT

Amino acid sequences for entries named in this document (tags omitted).
UniProt P16370: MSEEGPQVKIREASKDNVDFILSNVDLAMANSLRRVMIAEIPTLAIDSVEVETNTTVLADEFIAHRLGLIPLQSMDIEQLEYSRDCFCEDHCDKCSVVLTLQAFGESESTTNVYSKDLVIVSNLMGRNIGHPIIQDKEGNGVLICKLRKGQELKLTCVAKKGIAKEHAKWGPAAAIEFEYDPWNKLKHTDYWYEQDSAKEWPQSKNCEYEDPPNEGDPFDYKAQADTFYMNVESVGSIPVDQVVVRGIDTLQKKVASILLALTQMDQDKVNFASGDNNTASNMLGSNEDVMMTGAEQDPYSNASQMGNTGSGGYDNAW

Results are given in words; binding and its absence hold for the method and conditions named. Binding seen in cells or lysates may run through a third protein. These calls come from enrichment with a bait or labelling near it, and not all partners need be listed.

In the assay the target is Rpb3 with C-terminal BioTAP tag (S. cerevisiae) (UniProt P16370). Put plainly: affinity purification with mass spectrometry; BioTAP-XL two-step purification of Rpb3-BioTAP (IgG beads, then streptavidin agarose) from 1% formaldehyde-cross-linked wildtype and spt6-1004 cells shifted to 37 °C for 80 min; on-bead trypsin digestion, TMT labelling, MS3 quantification; untagged wildtype and spt6-1004 cells as controls; FDR cutoff 0.05.
As for B1, the binding result is “binds”. B2: the binding result was “binds”. To B3 belongs “binds”; to B4, “binds”; to B5, “binds”.

B6: the binding entry is reported as “binds”. To B7 belongs “binds”. For B8, the binding result was “binds”. As for B9, the binding result is “binds”. For B10, the binding entry is listed as “binds”.
